Read-outs that look alike come from different tables or passages of the source. Some entries share one result that the patent states for a list of compounds.
Legend:
[1] = target: T1, peptidylglutamyl activity of 20S proteasome (Bos taurus, UniProt Q2TBP0+Q3MHN0); assay: 20S proteasome peptidylglutamyl activity inhibition assay (CBZ-D-Ala-Leu-Glu-AMC cleavage); type: biochemical; conditions: Example 6: 2 μg 20S proteasome from bovine brain, substrate CBZ D-Ala-Leu-Glu-AMC, 15 minutes at 37° C.; for IC50: read-out: peptidylglutamyl activity inhibition, active at
T1 construct: was purified to homogeneity from bovine brain according to published methods; from tissue; host or cells: bovine brain
Description: Compounds of this invention prepared according to the method of Example 1 were also tested as follows. The 20S catalytic subunit of the proteasome (also known as the multicatalytic proteinase complex) was purified to homogeneity from bovine brain according to published methods (Wilk S. and Orlowski, M. 1983, 40 842 J. Neurochem). […] of the complex is measured by the increase in fluorescence following cleavage of the substrate peptide CBZ D-Ala-Leu-Glu-(7-amino-4-methyl coumarin). The standard in vitro assay consists of 2 μg 20S proteasome, 0.1-100 μg/ml proteasome inhibitor in […] 50 mM HEPES, containing 0.1% sodium dodecyl sulphate, pH 7.5. The proteolytic reaction is initiated by the addition of […] fluorogenic peptide substrate and allowed to progress for 15 minutes at 37° C. The reaction is terminated by the addition of […] 100 mM acetate buffer, pH 4.0. The rate of proteolysis is directly proportional to the amount of liberated aminomethylcoumarin which is measured by fluorescent spectroscopy (EX 370 nm, EM 430 nm). Compounds 1-207 were tested for peptidylglutamyl activity inhibition at >10 μg/mL. Compound 190 was active at 5 μg/mL.

By UniProt entry, the sequences of proteins in these tests, tags left out. Where a name states a change or a piece, a line headed by the entry shows the natural chain unless it says otherwise.
UniProt Q2TBP0: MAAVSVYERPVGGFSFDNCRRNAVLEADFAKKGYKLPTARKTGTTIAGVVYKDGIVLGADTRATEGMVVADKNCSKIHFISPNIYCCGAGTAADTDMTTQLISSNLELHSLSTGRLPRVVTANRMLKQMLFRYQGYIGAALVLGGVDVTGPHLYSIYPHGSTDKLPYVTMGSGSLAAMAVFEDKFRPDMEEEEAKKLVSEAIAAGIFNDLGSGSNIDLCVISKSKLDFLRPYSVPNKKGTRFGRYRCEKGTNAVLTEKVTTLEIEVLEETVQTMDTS
UniProt Q3MHN0: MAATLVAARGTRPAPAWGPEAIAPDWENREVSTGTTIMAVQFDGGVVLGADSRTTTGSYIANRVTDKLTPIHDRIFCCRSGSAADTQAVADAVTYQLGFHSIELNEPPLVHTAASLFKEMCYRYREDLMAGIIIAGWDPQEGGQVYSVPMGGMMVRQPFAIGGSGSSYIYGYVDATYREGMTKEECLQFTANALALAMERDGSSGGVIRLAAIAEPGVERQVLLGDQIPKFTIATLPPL
UniProt P33672: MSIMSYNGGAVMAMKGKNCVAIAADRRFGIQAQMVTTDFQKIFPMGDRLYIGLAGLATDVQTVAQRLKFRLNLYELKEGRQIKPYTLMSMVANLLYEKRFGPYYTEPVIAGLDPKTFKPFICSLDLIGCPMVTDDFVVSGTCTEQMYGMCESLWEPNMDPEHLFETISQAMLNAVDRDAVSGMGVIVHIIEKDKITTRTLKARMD

[2] = target: T2, tryptic activity of 20S proteasome (Bos taurus, UniProt P33672+Q2TBP0); assay: 20S proteasome tryptic activity inhibition assay (CBZ-D-Ala-Leu-Arg-AMC cleavage); type: biochemical, bovine; conditions: 15 minutes at 37° C.; for IC50: read-out: tryptic activity inhibition, active as inhibitors at
T2 construct: was purified to homogeneity from bovine brain according to published methods; from tissue; host or cells: bovine brain

[3] = Example 4: 2 μg 20S proteasome from bovine brain, substrate CBZ-D-Ala-Leu-Arg-AMC
[4] = Example 5: 20 μg 20S proteasome from bovine brain, substrate CBZ D-Ala-Leu-Arg-AMC

Compound | IC50 [1] [µM] | IC50 [2, 3] [µM] | IC50 [2, 4] [µM] | peptidylglutamyl activity inhibition, active at [1] [µg/mL] | tryptic activity inhibition, active as inhibitors at [2, 3] [µg/mL] | tryptic activity inhibition, active as inhibitors at [2, 4] [µg·mL]
CC(C)CC(NC(=O)C(CC(C)C)NC(=O)C(=O)Cc1ccccc1)C(=O)O (stereo not drawn) [Compound 1] | > 25.6 | > 25.6 | > 25.6 |  |  | 
CC(C)CC(NC(=O)C(CC(C)C)NC(=O)C(=O)Cc1c[nH]c2ccccc12)C(=O)O (stereo not drawn) [Compound 2] | > 23.3 | > 23.3 | > 23.3 |  |  | 
CC(C)C[C@@H](NC(=O)C(=O)Cc1c[nH]c2ccccc12)C(=O)N[C@H](CC(C)C)C(=O)NCc1ccccc1 [Compound 3] | > 19.3 | > 19.3 | > 19.3 |  |  | 
CC(C)CC(NC(=O)C(=O)c1c[nH]c2ccccc12)C(=O)NC(CC(C)C)C(=O)NCC(=O)O (stereo not drawn) [Compound 4] |  |  |  | > 10 | > 10 | > 10
CC(C)CC(NC(=O)C(=O)Cc1c[nH]c2ccccc12)C(=O)NC(CC(C)C)C(=O)NCC(=O)O (stereo not drawn) [Compound 5] | > 20.6 | > 20.6 | > 20.6 |  |  | 
CC(C)CC(NC(=O)C(=O)Cc1ccccc1)C(=O)NC(CC(C)C)C(=O)NCC(=O)O (stereo not drawn) [Compound 6] |  |  |  | > 10 | > 10 | > 10
CC(C)CC(NC(=O)C(=O)Cc1ccccc1)C(=O)NC(CC(C)C)C(=O)NCC(=O)NCc1ccccc1 (stereo not drawn) [Compound 7] |  |  |  | > 10 | > 10 | > 10
CC(C)CC(NC(=O)C(=O)c1c[nH]c2ccccc12)C(=O)NC(CC(C)C)C(=O)NCC(=O)NCc1ccccc1 (stereo not drawn) [Compound 8] |  |  |  | > 10 | > 10 | > 10
CC(C)CC(NC(=O)C(=O)Cc1c[nH]c2ccccc12)C(=O)NC(CC(C)C)C(=O)NCC(=O)NCc1ccccc1 (stereo not drawn) [Compound 9] |  |  |  | > 10 | > 10 | > 10
CC(C)CC(NC(=O)C(CC(C)C)NC(=O)C(=O)c1c[nH]c2ccccc12)C(=O)O (stereo not drawn) [Compound 10] |  |  |  | > 10 | > 10 | > 10
CC(C)CC(NC(=O)C(CC(C)C)NC(=O)C(=O)c1ccccc1)C(=O)O (stereo not drawn) [Compound 11] |  |  |  | > 10 | > 10 | > 10
CC(C)CC(NC(=O)C(=O)c1ccccc1)C(=O)NC(CC(C)C)C(=O)NCC(=O)O (stereo not drawn) [Compound 12] |  |  |  | > 10 | > 10 | > 10
CC(C)CC(NC(=O)C(=O)Cc1ccccc1)C(=O)NC(CC(C)C)C(=O)NC(Cc1ccccc1)C(=O)O (stereo not drawn) [Compound 13] |  |  |  | > 10 | > 10 | > 10
CC(C)CC(NC(=O)C(=O)c1c[nH]c2ccccc12)C(=O)NC(CC(C)C)C(=O)NC(Cc1ccccc1)C(=O)O (stereo not drawn) [Compound 14] |  |  |  | > 10 | > 10 | > 10
CC(C)CC(NC(=O)C(=O)Cc1c[nH]c2ccccc12)C(=O)NC(CC(C)C)C(=O)NC(Cc1ccccc1)C(=O)O (stereo not drawn) [Compound 15] |  |  |  | > 10 | > 10 | > 10
CC(C)CC(NC(=O)C(=O)c1ccccc1)C(=O)NC(CC(C)C)C(=O)NC(Cc1ccccc1)C(=O)O (stereo not drawn) [Compound 16] |  |  |  | > 10 | > 10 | > 10
CC(C)C[C@H](NC(=O)C(=O)Cc1c[nH]c2ccccc12)C(=O)N[C@H](CC(C)C)C(=O)N[C@H](C(=O)O)C(C)C [Compound 17] | > 18.9 | > 18.9 | > 18.9 |  |  | 

Compound | IC50 [1] [µM] | IC50 [2, 3] [µM] | IC50 [2, 4] [µM] | peptidylglutamyl activity inhibition, active at [1] [µg/mL] | tryptic activity inhibition, active as inhibitors at [2, 3] [µg/mL] | tryptic activity inhibition, active as inhibitors at [2, 4] [µg·mL]
CC(C)C[C@H](NC(=O)[C@@H](CC(C)C)NC(=O)[C@H](CC(C)C)NC(=O)C(=O)Cc1c[nH]c2ccccc12)C(=O)O [Compound 18] | > 18.4 | > 18.4 | > 18.4 |  |  | 
CCC(C)C(NC(=O)C(CC(C)C)NC(=O)C(CC(C)C)NC(=O)C(=O)Cc1c[nH]c2ccccc12)C(=O)O (stereo not drawn) [Compound 19] |  |  |  | > 10 | > 10 | > 10
CC(C)CC(NC(=O)C(=O)Cc1c[nH]c2ccccc12)C(=O)NC(CC(C)C)C(=O)NC(Cc1ccc(O)cc1)C(=O)O (stereo not drawn) [Compound 21] |  |  |  | > 10 | > 10 | > 10
CC(C)CC(NC(=O)C(CC(C)C)NC(=O)C(CC(C)C)NC(=O)C(=O)Cc1c[nH]c2ccccc12)C(=O)O (stereo not drawn) [Compound 22] |  |  |  | > 10 | > 10 | > 10
CC(C)C[C@H](NC(=O)[C@@H](CC(C)C)NC(=O)[C@@H](CC(C)C)NC(=O)C(=O)Cc1c[nH]c2ccccc12)C(=O)O [Compound 23] | > 18.4 | > 18.4 | > 18.4 |  |  | 
CC(C)CC(NC(=O)C(=O)Cc1c[nH]c2ccccc12)C(=O)NC(CC(C)C)C(=O)NC(C(=O)O)C(C)C (stereo not drawn) [Compound 27] |  |  |  | > 10 | > 10 | > 10
CC(C)CC(NC(=O)C(=O)Cc1c[nH]c2ccccc12)C(=O)NC(CC(C)C)C(=O)NC(C)C(=O)O (stereo not drawn) [Compound 30] | > 20 | > 20 | > 20 |  |  | 
CC(C)CC(NC(=O)CNC(=O)C(=O)Cc1c[nH]c2ccccc12)C(=O)NC(C(=O)O)C(C)C (stereo not drawn) [Compound 37] |  |  |  | > 10 | > 10 | > 10
CC(C)CC(NC(=O)CCNC(=O)C(=O)Cc1c[nH]c2ccccc12)C(=O)NC(C(=O)O)C(C)C (stereo not drawn) [Compound 38] |  |  |  | > 10 | > 10 | > 10
CCCCC(NC(=O)C(=O)Cc1c[nH]c2ccccc12)C(=O)NC(CC(C)C)C(=O)NC(C(=O)O)C(C)C (stereo not drawn) [Compound 39] |  |  |  | > 10 | > 10 | > 10
CC(C)C[C@@H](NC(=O)[C@H](Cc1ccccc1)NC(=O)C(=O)Cc1c[nH]c2ccccc12)C(=O)N[C@H](C(=O)O)C(C)C [Compound 40] | > 17.8 | > 17.8 | > 17.8 |  |  | 
CC(C)CC(NC(=O)C(NC(=O)C(=O)Cc1c[nH]c2ccccc12)C(C)O)C(=O)NC(C(=O)O)C(C)C (stereo not drawn) [Compound 41] |  |  |  | > 10 | > 10 | > 10
CC(C)CC(NC(=O)C(C)NC(=O)C(=O)Cc1c[nH]c2ccccc12)C(=O)NC(C(=O)O)C(C)C (stereo not drawn) [Compound 42] |  |  |  | > 10 | > 10 | > 10
CC(C)CC(NC(=O)C(CC(=O)O)NC(=O)C(=O)Cc1c[nH]c2ccccc12)C(=O)NC(C(=O)O)C(C)C (stereo not drawn) [Compound 43] |  |  |  | > 10 | > 10 | > 10
CC(C)CC(NC(=O)C(NC(=O)C(=O)Cc1c[nH]c2ccccc12)C(C)C)C(=O)NC(C(=O)O)C(C)C (stereo not drawn) [Compound 44] |  |  |  | > 10 | > 10 | > 10
CC(C)CC(NC(=O)C(Cc1ccc(O)cc1)NC(=O)C(=O)Cc1c[nH]c2ccccc12)C(=O)NC(C(=O)O)C(C)C (stereo not drawn) [Compound 46] |  |  |  | > 10 | > 10 | > 10
